From PubChem BioAssay AID651768 (National Center for Advancing Translational Sciences (NCATS), 2012)
Among all 360,000 compounds or so, about 1,700 (0.47%) were called active. The shares of active, inactive and inconclusive entries below differ from those in the screen. Calls follow the shape of the dose curve; as a rule, active = well fitted inhibition curve with a large enough effect; inconclusive = small, poorly fitted or top-dose-only effect; inactive = no such curve, though single readings can be large or run the other way. Potencies beside an inconclusive call are fits to weak or partial responses and may not hold up.

Chains of the proteins cited; added tags and fusions are not shown.
UniProt Q14191, whole entry, looked up: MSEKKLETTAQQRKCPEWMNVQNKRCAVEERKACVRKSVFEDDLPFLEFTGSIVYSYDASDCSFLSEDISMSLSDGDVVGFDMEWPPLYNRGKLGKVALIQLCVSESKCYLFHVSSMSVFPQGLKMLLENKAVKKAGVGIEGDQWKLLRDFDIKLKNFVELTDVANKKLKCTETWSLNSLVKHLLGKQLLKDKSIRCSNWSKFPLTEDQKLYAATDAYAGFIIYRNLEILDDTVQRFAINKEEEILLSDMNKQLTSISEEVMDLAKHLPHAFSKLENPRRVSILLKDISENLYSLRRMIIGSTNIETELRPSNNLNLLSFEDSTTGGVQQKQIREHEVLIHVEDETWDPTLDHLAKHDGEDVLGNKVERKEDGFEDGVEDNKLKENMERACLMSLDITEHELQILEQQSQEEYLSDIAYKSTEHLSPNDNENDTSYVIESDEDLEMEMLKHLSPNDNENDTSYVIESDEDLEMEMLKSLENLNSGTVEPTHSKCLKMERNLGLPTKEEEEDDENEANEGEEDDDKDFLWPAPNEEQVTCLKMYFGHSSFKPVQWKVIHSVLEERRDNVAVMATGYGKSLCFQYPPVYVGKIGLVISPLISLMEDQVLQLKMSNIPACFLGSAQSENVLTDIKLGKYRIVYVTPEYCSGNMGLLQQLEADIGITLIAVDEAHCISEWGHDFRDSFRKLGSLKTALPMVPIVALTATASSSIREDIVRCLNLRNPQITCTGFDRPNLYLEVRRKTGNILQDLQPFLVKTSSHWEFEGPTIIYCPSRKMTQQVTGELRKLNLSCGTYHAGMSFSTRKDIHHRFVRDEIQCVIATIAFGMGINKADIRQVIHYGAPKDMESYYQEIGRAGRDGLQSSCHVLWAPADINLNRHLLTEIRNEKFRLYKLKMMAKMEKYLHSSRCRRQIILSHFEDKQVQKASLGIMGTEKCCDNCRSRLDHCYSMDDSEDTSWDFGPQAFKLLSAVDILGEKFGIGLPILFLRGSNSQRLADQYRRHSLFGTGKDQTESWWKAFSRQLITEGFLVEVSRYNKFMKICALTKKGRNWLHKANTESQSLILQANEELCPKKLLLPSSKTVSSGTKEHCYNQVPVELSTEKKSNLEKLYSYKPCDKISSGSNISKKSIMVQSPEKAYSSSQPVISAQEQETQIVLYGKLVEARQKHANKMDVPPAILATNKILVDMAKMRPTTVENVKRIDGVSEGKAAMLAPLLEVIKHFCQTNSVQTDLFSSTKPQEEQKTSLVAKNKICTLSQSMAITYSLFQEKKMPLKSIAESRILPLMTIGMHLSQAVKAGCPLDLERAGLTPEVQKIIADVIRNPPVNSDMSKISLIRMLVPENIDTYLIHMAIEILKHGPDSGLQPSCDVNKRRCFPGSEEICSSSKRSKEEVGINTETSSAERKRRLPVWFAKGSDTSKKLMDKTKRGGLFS

Molecular target: Bifunctional 3'-5' exonuclease/ATP-dependent helicase WRN (Homo sapiens) (UniProt Q14191)
Assay: qHTS for Inhibitors of WRN Helicase; also: nearly all actives have a fitted effect of over 55% in size
Settings: WRN helicase unwinding, fluorescent forked duplex, kinetic; activity change, negative = inhibition: at 114 µM (top of the series) unless noted
In short: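 Enzyme (20 nM final) and test compound sit together 15 min at room temperature before substrate addition. Substrate is a single-forked duplex oligonucleotide (100 nM) labelled with fluorophore and quencher, with 2 mM ATP; helicase unwinding raises red fluorescence, read kinetically.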
% is scaled to controls: 0 for no effect and ±100 for the full control effect; potency is read from the fitted curve at half-maximal effect.

| SMILES | Potency | activity change, negative = inhibition |
| --- | --- | --- |
| N#CC(C#N)=C1C=C2C=C(N3CCCCCC3)CCC2CC1 (centres undefined) | active: 15 µM |  |
| O=C(C(Br)=Cc1ccccc1)c1ccccc1 | inconclusive: 56.2 µM [inhibitor, partial curve] |  |
| O=C(CSc1nnc(CN2CCOCC2)n1-c1ccc(Cl)cc1)Nc1cc(Cl)ccc1O |  | inconclusive: -36.8% [inhibitor] [at 57.1 µM] |
| CN(CC(=O)Nc1cccc(F)c1)C(=O)c1cc(-c2ccco2)nc2ccccc12 | inconclusive: 79.4 µM [inhibitor, single point] |  |
| COc1ccc(C(=O)Nc2cc(S(=O)(=O)N3CCCCC3)ccc2C)cc1 | inactive |  |
| CC1CC1C(=O)OCC(=O)NCc1ccccc1 (centres undefined) | inconclusive: 22.4 µM [inhibitor, full curve] |  |
| COc1ccc(OC)c(CN2CCN(S(=O)(=O)c3ccccc3)CC2)c1 | inconclusive: 22.4 µM [inhibitor, partial curve] |  |
| O=C(/C=C/c1ccc(NC(=O)c2ccccc2-c2ccccc2C(=O)O)cc1)c1ccccc1 | inconclusive: 56.2 µM [inhibitor, partial curve] |  |
| COc1ccc2cc(C3CC(c4ccco4)=NN3C(=O)CCC(=O)O)c(Cl)nc2c1 (centres undefined) | inconclusive: 25.1 µM [inhibitor, single point] |  |
| O=C(CSc1nnc(NC(=O)c2ccco2)s1)NC1CCCC1 | inconclusive: 28.2 µM [inhibitor, full curve] |  |
| Cc1ccccc1CC1(CO)CCCN(C(=O)c2ccc3ncccc3c2)C1 (centres undefined) | inconclusive: 89.1 µM [inhibitor, single point] |  |
| COc1cc(O)c(CC=C(C)C)c(O)c1C(=O)CCc1ccc(O)cc1 | inactive |  |
| Cc1ccc(C(=O)Nc2cc(C)nn2CCC#N)cc1 | inconclusive: 89.1 µM [inhibitor, single point] |  |
| COc1cc(SC)ccc1C(=O)N1CCN(c2ccccc2)CC1 | inconclusive: 56.2 µM [inhibitor, single point] |  |
| Cc1ccc(C2CC(=O)N3CN(c4ccc(Br)cc4)CSC3=C2C#N)o1 (centres undefined) | inactive |  |
| CCOC(=O)c1c(NC(=O)CCC(=O)O)sc2c1CCCCC2 | inactive |  |
| COc1ccc(-n2nc3cc(C)c(N)c(Br)c3n2)cc1 | active: 44.7 µM |  |
| Cc1ccc(C)n1-c1sc2c(c1C(=O)O)CCCC2 | inconclusive: 31.6 µM [inhibitor, partial curve] |  |
| O=C(Nc1nc2ccc(S(=O)(=O)N3CCCC3)cc2s1)c1ccco1 | inconclusive: 28.2 µM [inhibitor, partial curve] |  |
| Cc1c(N2C(=O)c3ccc4c5c(ccc(c35)C2=O)CC4)c(=O)n(-c2ccccc2)n1C | inconclusive: 56.2 µM [inhibitor, partial curve] |  |
| COc1cc(/C=N/N=C2/SCC(=O)N2c2ccc(O)cc2)ccc1O | active: 79.4 µM |  |
| CCN(CC)c1ccc(N2C(=O)/C(=C/c3ccccn3)SC2=S)cc1 | inconclusive: 39.8 µM [inhibitor, single point] |  |

Of the compounds above, 2 have a Cl atom:

| SMILES | Potency | activity change, negative = inhibition |
| --- | --- | --- |
| O=C(CSc1nnc(CN2CCOCC2)n1-c1ccc(Cl)cc1)Nc1cc(Cl)ccc1O |  | inconclusive: -36.8% [inhibitor] [at 57.1 µM] |
| COc1ccc2cc(C3CC(c4ccco4)=NN3C(=O)CCC(=O)O)c(Cl)nc2c1 (centres undefined) | inconclusive: 25.1 µM [inhibitor, single point] |  |

(listing goes on)

| SMILES | Potency | activity change, negative = inhibition |
| --- | --- | --- |
| Cc1cc(NC(=O)Nc2ccccc2[N+](=O)[O-])no1 | inconclusive: 63.1 µM [inhibitor, single point] |  |
| O=C(O)c1ccc(/C=N/NC(=O)c2cc3ccccc3cc2O)cc1 | inconclusive: 14.1 µM [inhibitor, full curve, poor fit] |  |
| Cc1cccnc1NC(=O)c1ccc(Cl)c(S(=O)(=O)N2CCCCCC2)c1 | inconclusive: 50.1 µM [inhibitor, full curve, poor fit] |  |
| C[C@H]1CN([C@@H](C)CO)C(=O)CCCn2nncc2CO[C@@H]1CN(C)C(=O)c1ccccc1 | inactive |  |
| O=C(N/N=C/c1cccnc1)c1ccc(NC(=O)c2ccc(Cl)cc2)cc1 | inactive |  |
| N#C/C(=C\c1ccc(O)c(O)c1)C(=O)N1CCc2ccccc21 | active: 17.8 µM |  |
| Cc1nc(NCCc2ccc(S(N)(=O)=O)cc2)c2c3c(sc2n1)CCC3 | inactive |  |
| Cc1c(O)nc(SCC(=O)Nc2cccc(C(F)(F)F)c2)n(-c2ccccc2)c1=O | inconclusive: 79.4 µM [inhibitor, single point] |  |
| COc1ccc(C(CCN2CCCCC2)c2c(OC)cc(OC)c3c(-c4ccccc4)cc(=O)oc23)cc1 (centres undefined) | inactive |  |
| O=C(Nc1ccc(N2CCN(c3ccc(O)cc3)CC2)cc1)Oc1ccccc1 | inactive |  |
| COc1ccc(OC)c(NC(=O)CSc2nnc(NC(=O)c3ccco3)s2)c1 | inconclusive: 89.1 µM [inhibitor, single point] |  |
| Cc1ncoc1C(=O)NC1CCCc2c1cnn2-c1ccc(C(C)(C)C)cc1 (centres undefined) | inconclusive: 79.4 µM [inhibitor, single point] |  |
| O=C(Nc1cccnc1)c1cccc(S(=O)(=O)Nc2ccccc2F)c1 | inconclusive: 44.7 µM [inhibitor, full curve, poor fit] |  |
| O=C(NC(Cc1ccccc1)C(=O)O)/C(=C\c1ccco1)NC(=O)c1ccc(Br)cc1 (centres undefined) | inconclusive: 50.1 µM [inhibitor, partial curve] |  |
| COc1ccc(C(=O)Nc2nc(-c3ccc([N+](=O)[O-])cc3)c(-c3ccc(OC)cc3)s2)cc1 | inconclusive: 89.1 µM [inhibitor, partial curve] |  |
| Nc1nnc(CC(=O)N/N=C/c2ccc(-c3cccc(C(=O)O)c3)o2)s1 | inconclusive: 44.7 µM [inhibitor, partial curve] |  |
| COc1ccc(Cl)cc1NC(=O)COC(=O)CCCN1C(=O)c2ccccc2C1=O | inconclusive: 25.1 µM [inhibitor, single point] |  |
| S=C(Nc1cccc(Cl)c1)Nc1cccc2cnccc12 | inconclusive: 100 µM [inhibitor, partial curve] |  |
| O=C(/C=C/c1ccccc1)/C=C/c1ccccc1 | inconclusive: 31.6 µM [inhibitor, partial curve] |  |
| O=C1c2ccc3c4c(ccc(c24)C(=O)N1NC(=O)C(F)(F)F)CC3 | inconclusive: 13.4 µM [inhibitor, partial curve] |  |
| COc1ccc(C(=O)COc2ncnc3cc(Cl)ccc23)cc1 | inactive |  |
| CN(C)c1ccc(C=Cc2nccc3ccccc23)cc1 | active: 79.4 µM |  |
